Measurements published in article PMC3032778.

Molecular target: T1, FLAG-tagged hTIN2 (human) (UniProt Q9BSI4)
T1 sequence: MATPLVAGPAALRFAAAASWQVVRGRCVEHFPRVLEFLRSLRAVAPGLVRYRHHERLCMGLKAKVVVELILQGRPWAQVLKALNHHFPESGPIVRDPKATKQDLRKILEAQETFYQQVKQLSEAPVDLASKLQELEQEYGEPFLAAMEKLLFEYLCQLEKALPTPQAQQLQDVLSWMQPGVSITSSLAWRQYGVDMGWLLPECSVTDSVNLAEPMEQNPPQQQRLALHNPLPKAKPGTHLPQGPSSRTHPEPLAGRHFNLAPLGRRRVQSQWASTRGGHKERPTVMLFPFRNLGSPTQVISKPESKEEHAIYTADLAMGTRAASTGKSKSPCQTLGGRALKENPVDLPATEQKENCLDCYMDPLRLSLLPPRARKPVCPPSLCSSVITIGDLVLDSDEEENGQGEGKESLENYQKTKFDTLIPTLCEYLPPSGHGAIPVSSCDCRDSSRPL
Experiment: co-IP; 293T cells co-transfected, lysed after 48 h in NETN (20 mM Tris pH 8, 1 mM EDTA, 100 mM NaCl, 0.5% NP-40); extracts 1 hour at 4°C with anti-FLAG M2 agarose beads; western blot (anti-GST, anti-V5, anti-FLAG)

## V5-tagged zfTPP1 (zebrafish)
  binding: binds weakly

No constants are given. Whether binding was seen depends on the method and setting. In cells and extracts the contact can be indirect. Binding can be weak; no strength is given. Sequences can lack the tags named with a protein.
